According to paper PMC11009230:
No constants are given. Whether binding was seen depends on the method and setting. Binding seen in cells or lysates may run through a third protein. Some entries that bind do so weakly or less than the wild type.

By UniProt entry, the sequences of proteins in these tests, tags left out.
UniProt O75317: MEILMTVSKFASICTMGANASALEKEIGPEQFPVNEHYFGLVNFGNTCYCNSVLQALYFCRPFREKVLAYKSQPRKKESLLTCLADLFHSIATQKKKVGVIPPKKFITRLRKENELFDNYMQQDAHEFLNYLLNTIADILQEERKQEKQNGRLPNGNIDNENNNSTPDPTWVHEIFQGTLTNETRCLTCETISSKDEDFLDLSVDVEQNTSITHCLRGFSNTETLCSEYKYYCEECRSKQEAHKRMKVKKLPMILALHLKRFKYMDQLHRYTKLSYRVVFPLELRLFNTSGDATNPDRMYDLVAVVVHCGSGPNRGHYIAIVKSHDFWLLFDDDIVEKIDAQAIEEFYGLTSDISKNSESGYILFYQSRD
UniProt P46937: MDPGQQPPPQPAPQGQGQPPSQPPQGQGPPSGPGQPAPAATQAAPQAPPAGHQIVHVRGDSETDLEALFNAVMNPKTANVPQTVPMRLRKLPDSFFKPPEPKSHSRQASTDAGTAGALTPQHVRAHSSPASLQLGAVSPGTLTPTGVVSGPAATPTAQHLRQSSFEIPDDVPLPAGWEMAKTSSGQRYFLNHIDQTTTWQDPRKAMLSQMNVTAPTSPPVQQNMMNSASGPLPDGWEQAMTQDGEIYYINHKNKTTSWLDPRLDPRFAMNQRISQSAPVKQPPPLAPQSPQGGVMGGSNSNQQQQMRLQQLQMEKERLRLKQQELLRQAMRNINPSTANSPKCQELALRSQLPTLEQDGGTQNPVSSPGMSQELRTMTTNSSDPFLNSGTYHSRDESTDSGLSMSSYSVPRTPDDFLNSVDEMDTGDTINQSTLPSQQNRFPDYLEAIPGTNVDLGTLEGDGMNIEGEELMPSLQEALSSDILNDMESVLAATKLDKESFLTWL

Legend:
[1] = biological target: USP12 (Ubiquitin Specific Peptidase 12) (human (endogenous in AGS)) (UniProt O75317); test: co-IP; endogenous proteins in AGS cell lysate (Co-IP cell lysis buffer with protease inhibitors); precipitated overnight at 4 °C with anti-YAP or anti-USP12 antibody or IgG and protein A/G agarose; precipitates examined by immunoblotting
[2] = biological target: YAP (human (endogenous in AGS)) (UniProt P46937); test: as above

Substance	binding [1]	binding [2]
YAP (from UniProt P46937 1-504)	binds	
USP12 (Ubiquitin Specific Peptidase 12) (from UniProt O75317 1-370) (enzyme)		binds
